PubChem BioAssay AID1224830 – NIAID – 2016
In all, the deposit lists about 18,000 reagents; below is a part drawn at random. About 2,900 of all reagents (16%) count as active. 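Calls are made per well; low scores hint the gene aids the LPS response, high scores that it dampens it.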 Unmarked entries are inactive. Repeated entries: four replicate wells of each siRNA pool.

Purpose: 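Host factors that control LPS-induced TNF expression in human macrophages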 (primary screen)
System: human THP-1 monocytic leukaemia cells, TNF dual-luciferase reporter clone, PMA-differentiated to macrophage-like cells
Reagent: siRNA pool against human genes, 50 nM
Timing: LPS for 4 h, given about 3 days after siRNA transfection
Challenge: bacterial LPS (TLR4 ligand), 10 ng/ml
Measured: 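TNF firefly reporter luminescence divided by renilla, normalised to the plate median, then turned into a robust z-score for each replicate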
Scale: TNF reporter robust z-score: higher = stronger TNF reporter response to LPS
Active means: 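a well is active when its z-score exceeds 2.8 or falls below -1.5; control wells carry no call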

UBXN4 (UBX domain protein 4) [SID315455057] → TNF reporter robust z-score = -0.96
UBXN4 (UBX domain protein 4) [SID315455057] → TNF reporter robust z-score = -0.56
UBXN4 (UBX domain protein 4) [SID315455057] → TNF reporter robust z-score = -0.6
UBXN4 (UBX domain protein 4) [SID315455057] → TNF reporter robust z-score = -0.47
FABP4 (fatty acid binding protein 4) [SID315448614] → TNF reporter robust z-score = 1.28
FABP4 (fatty acid binding protein 4) [SID315448614] → TNF reporter robust z-score = -0.38
FABP4 (fatty acid binding protein 4) [SID315448614] → TNF reporter robust z-score = 0.07
FABP4 (fatty acid binding protein 4) [SID315448614] → TNF reporter robust z-score = -0.06
SLC2A4 [SID315451456] → TNF reporter robust z-score = -0.27
SLC2A4 [SID315451456] → TNF reporter robust z-score = -0.46
SLC2A4 [SID315451456] → TNF reporter robust z-score = -0.63
ACTMAP (actin maturation protease) [SID315463760] → TNF reporter robust z-score = 0.33
ACTMAP (actin maturation protease) [SID315463760] → TNF reporter robust z-score = -0.09
ACTMAP (actin maturation protease) [SID315463760] → TNF reporter robust z-score = 5.6 (active)
ACTMAP (actin maturation protease) [SID315463760] → TNF reporter robust z-score = -0.27
FOXO3 (forkhead box O3) [SID315448721] → TNF reporter robust z-score = 0.72
FOXO3 (forkhead box O3) [SID315448721] → TNF reporter robust z-score = 1.19
FOXO3 (forkhead box O3) [SID315448721] → TNF reporter robust z-score = 1.63
FOXO3 (forkhead box O3) [SID315448721] → TNF reporter robust z-score = 1.6
DYNLT2 (dynein light chain Tctex-type 2) [SID315451808] → TNF reporter robust z-score = 0.16
DYNLT2 (dynein light chain Tctex-type 2) [SID315451808] → TNF reporter robust z-score = 1.84
DYNLT2 (dynein light chain Tctex-type 2) [SID315451808] → TNF reporter robust z-score = 0.74
DYNLT2 (dynein light chain Tctex-type 2) [SID315451808] → TNF reporter robust z-score = 0.41
ADGRA2 (adhesion G protein-coupled receptor A2) [SID315455580] → TNF reporter robust z-score = 0.4
ADGRA2 (adhesion G protein-coupled receptor A2) [SID315455580] → TNF reporter robust z-score = 0.74
ADGRA2 (adhesion G protein-coupled receptor A2) [SID315455580] → TNF reporter robust z-score = 0.22
ADGRA2 (adhesion G protein-coupled receptor A2) [SID315455580] → TNF reporter robust z-score = 1.26

Next part; the last 6 above are carried over.
DYNLT2 (dynein light chain Tctex-type 2) [SID315451808] → TNF reporter robust z-score = 0.74
DYNLT2 (dynein light chain Tctex-type 2) [SID315451808] → TNF reporter robust z-score = 0.41
ADGRA2 (adhesion G protein-coupled receptor A2) [SID315455580] → TNF reporter robust z-score = 0.4
ADGRA2 (adhesion G protein-coupled receptor A2) [SID315455580] → TNF reporter robust z-score = 0.74
ADGRA2 (adhesion G protein-coupled receptor A2) [SID315455580] → TNF reporter robust z-score = 0.22
ADGRA2 (adhesion G protein-coupled receptor A2) [SID315455580] → TNF reporter robust z-score = 1.26
MMP23B (matrix metallopeptidase 23B) [SID315452614] → TNF reporter robust z-score = 1.02
MMP23B (matrix metallopeptidase 23B) [SID315452614] → TNF reporter robust z-score = 0.28
MMP23B (matrix metallopeptidase 23B) [SID315452614] → TNF reporter robust z-score = -0.67
TBC1D3F (TBC1 domain family member 3F) [SID315460243] → TNF reporter robust z-score = 0.71
TBC1D3F (TBC1 domain family member 3F) [SID315460243] → TNF reporter robust z-score = -0.84
TBC1D3F (TBC1 domain family member 3F) [SID315460243] → TNF reporter robust z-score = -0.41
TBC1D3F (TBC1 domain family member 3F) [SID315460243] → TNF reporter robust z-score = 0.45
FBXO33 (F-box protein 33) [SID315463444] → TNF reporter robust z-score = 0.01
FBXO33 (F-box protein 33) [SID315463444] → TNF reporter robust z-score = -0.12
FBXO33 (F-box protein 33) [SID315463444] → TNF reporter robust z-score = -1.35
FBXO33 (F-box protein 33) [SID315463444] → TNF reporter robust z-score = -0.39
C6orf15 (chromosome 6 open reading frame 15) [SID315456150] → TNF reporter robust z-score = 1.93
C6orf15 (chromosome 6 open reading frame 15) [SID315456150] → TNF reporter robust z-score = 0.78
C6orf15 (chromosome 6 open reading frame 15) [SID315456150] → TNF reporter robust z-score = 1.16
C6orf15 (chromosome 6 open reading frame 15) [SID315456150] → TNF reporter robust z-score = 1.9
HOXB9 (homeobox B9) [SID315449284] → TNF reporter robust z-score = 0.74
HOXB9 (homeobox B9) [SID315449284] → TNF reporter robust z-score = 1.16
HOXB9 (homeobox B9) [SID315449284] → TNF reporter robust z-score = 0.47
HOXB9 (homeobox B9) [SID315449284] → TNF reporter robust z-score = 0.11
BMP3 (bone morphogenetic protein 3) [SID315447561] → TNF reporter robust z-score = 0.28
BMP3 (bone morphogenetic protein 3) [SID315447561] → TNF reporter robust z-score = -0.94
BMP3 (bone morphogenetic protein 3) [SID315447561] → TNF reporter robust z-score = -0.38
BMP3 (bone morphogenetic protein 3) [SID315447561] → TNF reporter robust z-score = 0.61
MAGEB1 (MAGE family member B1) [SID315449863] → TNF reporter robust z-score = 1.38
MAGEB1 (MAGE family member B1) [SID315449863] → TNF reporter robust z-score = 1.45
MAGEB1 (MAGE family member B1) [SID315449863] → TNF reporter robust z-score = 1.64
MAGEB1 (MAGE family member B1) [SID315449863] → TNF reporter robust z-score = 0.88
UNC13C (unc-13 homolog C) [SID315464900] → TNF reporter robust z-score = 1.46
UNC13C (unc-13 homolog C) [SID315464900] → TNF reporter robust z-score = 0
UNC13C (unc-13 homolog C) [SID315464900] → TNF reporter robust z-score = 0.43
UNC13C (unc-13 homolog C) [SID315464900] → TNF reporter robust z-score = 0.65
TTC39A (tetratricopeptide repeat domain 39A) [SID315454918] → TNF reporter robust z-score = -0.61
TTC39A (tetratricopeptide repeat domain 39A) [SID315454918] → TNF reporter robust z-score = -0.09
TTC39A (tetratricopeptide repeat domain 39A) [SID315454918] → TNF reporter robust z-score = 0.08
TTC39A (tetratricopeptide repeat domain 39A) [SID315454918] → TNF reporter robust z-score = 0.63
